## Primary screen of a compound library

Measurements from “University of Dundee, Small-Polar-MMV Screening Library” (2021), ChEMBL document CHEMBL3988442.

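Whole-parasite assay of Trypanosoma brucei over 72 hours; the read-out is not stated. Compounds at 10 µM. Direction is inferred from retests: higher values go with stronger inhibition. Values scatter widely below zero; nearly all retest evidence comes from the higher of the two concentrations used. Size under these conditions: about 2,700 compounds, about 14 of them at 50% or above in at least one test.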

Results are given as percent effect.
The controls that fix the scale are not given in the record; negative values are as filed.
Compounds were drawn at random from those tested, without regard to their results.

- CCn1cnnc1CNC(=O)c1ccc(Cl)cc1I | 9.933%
- CN(CCCc1cc(-c2ccccc2)no1)S(C)(=O)=O | -89.43%
- Cn1ccnc1CN1CCCN(C(=O)COC2CCCCC2)CC1 | -41.41%
- COCCc1noc(CN2CC(n3nc(C)cc3C)C2)n1 | -39.33%
- Cc1nc(CC(=O)N2CCCC2Cn2cccn2)cs1 (stereo unspecified) | -57.57%
- COc1ccc(COCC(O)CNC(=O)Cc2ccc(C)cc2)cc1 (stereo unspecified) | -17.92%
- CCOCCCn1c(NC(=O)c2cc(C)no2)nc2ccccc21 | -30.38%
- CC(C)N1CCN(C(=O)c2ccc(Cn3ccccc3=O)o2)CC1 | -43%
- CCN1CCC(NC(=O)CN2CCc3c(ncn3C3CC3)C2)CC1 | -42.18%
- Cc1cnn(CC(C)NCc2ccc(OCc3cccnc3)cc2)c1 (stereo unspecified) | 5.925%
- CSCC(=O)N1CCCCC1Cn1cc(C)cn1 (stereo unspecified) | -9.112%
- Cc1nn(C)c(N(C)C)c1CNCc1ccccc1Cn1ccnc1 | -18.74%
- CCCN(C)CCC(=O)N1CCCC1Cn1cccn1 (stereo unspecified) | -53.09%
- CCc1nc(C2CCCN(C(=O)c3cccc(Cl)c3)C2)no1 (stereo unspecified) | -73.29%
- CCc1ccc(CNc2cc(N3CCCC3CO)ncn2)s1 (stereo unspecified) | -39.8%
- CCc1csc(C2CCCN(C(=O)COc3cc(C)on3)C2)n1 (stereo unspecified) | -16.13%
- CC1CN(Cc2ccc(C#N)cc2F)CCN1Cc1nccn1C (stereo unspecified) | -47.43%
- CC(C)c1ccc(S(=O)(=O)N2CSCC2C(=O)NCC(F)(F)F)cc1 (stereo unspecified) | -4.447%
- O=C1NCCN1C1CCN(CCOc2ccccc2F)CC1 | -33.22%
- Cc1cc(C)n(CC2CCCN2C(=O)c2cccc(C#N)c2)n1 (stereo unspecified) | -7.723%
- CC(c1cccc(Cl)c1)N(C)Cc1nc2c(cnn2C)c(=O)[nH]1 (stereo unspecified) | -78.98%
- CN(Cc1ccc2c(c1)OCO2)C(=O)Cn1cccnc1=O | -168.4%
- CS(=O)(=O)c1ccc(CNC(=O)N2CCC(CO)CC2)cc1 | -2.417%
- Cc1nc(C)n(CC2CCCCN2Cc2cn3ccccc3n2)n1 (stereo unspecified) | -0.8065%
- COc1ccccc1OCC(=O)NS(=O)(=O)c1ccc(Cl)s1 | -28.12%
- CCCc1noc(CNC2CCCN(Cc3noc(C4CC4)n3)C2)n1 (stereo unspecified) | -56.09%
- Cc1cc(CN2CCN(C(=O)c3sccc3C3CC3)CC2)no1 | -37.67%
- CC(C)(C)c1n[nH]c(C2CN(Cc3nnc(C4CCC4)o3)CCO2)n1 (stereo unspecified) | 3.146%
- CCc1noc(CN2CCN(C(=O)COC)CC2)n1 | -6.263%
- O=C(COCc1ccccc1Cl)N1CCCC(n2ccnc2)C1 (stereo unspecified) | -40.52%
- Cc1ccc(C(=O)NCCCNc2ccc(C(F)(F)F)cn2)cc1 | -66.01%

For reference, 2 entries once more:

{"compound": "Cc1cc(C)n(CC2CCCN2C(=O)c2cccc(C#N)c2)n1", "stereo": "stereo unspecified", "Percent Effect": -7.723}
{"compound": "COc1ccccc1OCC(=O)NS(=O)(=O)c1ccc(Cl)s1", "Percent Effect": -28.12}